# Test results: PubChem BioAssay
# Inconclusive means that the source gave no clear call. Such entries were picked first, then a sample of the others. The source made the active and inactive calls.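 How the source made its calls, unless noted: active means cell viability at or below a set limit in both duplicate runs, the limit being the all-compound median minus 4 SD (cut at about 23% in these data, passing the limit was not always enough); inconclusive means no clear call, values can overlap the other calls; inactive means the rest.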
# How the values were obtained:
# [1] = doxorubicin toxicity protection in MRP-1 cells – H69AR cells, CellTiter-Glo, duplicate, MRP-1 activator project, pilot screen (AID 807;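 active means viability increase at or above a cutoff of the median across tested compounds plus 3 SD, cut at about 8.5% in these data, passing the limit was not always enough; inconclusive means some gains above the cutoff, reason not given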;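 further: compound pretreatment 18-22 h then 72 h combined with doxorubicin; 0% = doxorubicin alone and 100% = vehicle without doxorubicin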); settings: H69AR viability with doxorubicin, CellTiter-Glo luminescence; at 10 µM; hits give high values
# [2] = viability of HCT116 without oncogenic beta-catenin – human colon tumor cells, pilot screen (AID 823); settings: HCT116 beta-catenin knockout viability, CellTiter-Glo, 60 h; at 10 µM; hits give low values;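 further: 0% = wells killed by 20 µM Hyamine and 100% = untreated DMSO cell wells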
# [3] = viability of PTEN-null HCT116 cells – cell-based, HCT116 clonal line, CellTiter-Glo, pilot screen (AID 824;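 active means viability at or below 27.92% in each of two runs, the all-compound median minus 4 SD; inconclusive means no clear call, values can overlap the other calls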;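 further: 0% = 20 µM Hyamine control and 100% = vehicle cell control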); settings: HCT116 PTEN-deleted viability, 60 h, at 10 µM, hits give low values
# [4] = RAM pathway blockade in budding yeast – dse1pr::URA3 reporter, 5-FOA selection, pilot screen (AID 869;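 active means inhibition over a set limit, the all-compound mean plus 3 SD, in both replicate runs; inconclusive means over that limit in just one replicate run; inactive means at or under that limit in both runs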;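 further: 0% = DMSO wells with no growth and 100% = 10 µM 1-NA-PP1 with full growth; RAM network block rescues cells from 5-FOA so hits raise OD615 growth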); settings: S. cerevisiae dse1pr::URA3 5-FOA growth, OD615, 2 d; at 10 µM; hits give high values; strain carries analog-sensitive mutant Cbk1 kinase
compound,measurement,setting,value
Cc1c(C(=O)Nc2nnc(C(F)(F)F)s2)oc2ccccc12,viability increase,[1],inconclusive: 3.37%
same,viability,[2],inconclusive: 69.3%
same,viability,[3],inactive: 65.5%
COc1ccc(-n2c(Cc3cc(=O)[nH]c(=O)[nH]3)nnc2SCC(=O)N2CCC(C)CC2)cc1,viability increase,[1],inconclusive: 20.2%
same,viability,[2],inactive: 98.2%
Cc1oc(-c2cccc(Cl)c2)nc1CN1CCC(C(=O)NCCCN2CCCC2=O)CC1,viability increase,[1],inactive: -3.95%
Cc1cccc(-n2ncc3c(N4CC(C)CC(C)C4)ncnc32)c1 (stereo unspecified),viability increase,[1],inconclusive: 8.1%
same,viability,[3],inactive: 78.1%
CCCCc1ccc(-c2nc(-c3ccncc3)no2)cc1,viability increase,[1],inconclusive: 10.4%
CC(c1ccco1)N(C(=O)COc1ccc(Cl)cc1Cl)c1ccccn1 (stereo unspecified),viability increase,[1],inactive: -4.89%
same,viability,[2],inconclusive: 62.3%
CN(C)S(=O)(=O)c1ccc(S(=O)(=O)N2CCN(CCC#N)CC2)cc1,viability increase,[1],inconclusive: 31.1%
Cc1ccc(-c2cc(C(F)F)nc(NCc3cccnc3)n2)cc1,viability increase,[1],inconclusive: 5.82%
Cc1csc(NC(=O)NC2(C(F)(F)F)Oc3ccccc3O2)n1,viability increase,[1],inactive: -6.08%
same,viability,[2],inconclusive: 66.8%
same,viability,[3],inactive: 84.3%
same,inhibition,[4],inactive: 0.995%
CCc1nnc(NC(=O)c2ccc(S(=O)(=O)N(CC)CC)cc2)s1,viability increase,[1],inconclusive: 5.16%
CCc1cccc(C)c1NC(=O)CCCC(=O)O,viability increase,[1],inactive: -1.29%
same,viability,[2],inconclusive: 109%
COc1ccccc1C1CC(c2ccc(Cl)cc2Cl)Nc2nc(N)nn21 (stereo unspecified),viability increase,[1],inconclusive: 8.2%
O=C(CSc1nc(-c2ccco2)cc(C(F)(F)F)n1)Nc1ccc(C(=O)N2CCCCC2)cc1,viability increase,[1],inactive: -2.87%
same,viability,[2],inconclusive: 40.6%
same,viability,[3],inconclusive: 50.5%
Nc1ccc(O)c(-c2nc3ccccc3s2)c1,viability,[2],inconclusive: 34.1%
CCN(CC)CCN1C(=O)C(=O)/C(=C(/O)c2ccc(C)cc2)C1c1ccncc1 (stereo unspecified),viability,[2],inconclusive: 102%
O=C(Nc1cccc(F)c1)Nc1ccccn1,viability,[2],inconclusive: 106%
COCCNS(=O)(=O)c1ccc2c(c1)C(=O)c1cc(S(=O)(=O)NCCOC)ccc1-2,viability,[2],inconclusive: 97.7%
O=S(=O)(Nc1ccc(O)cc1)c1cccc2cccnc12,viability,[2],inactive: 93.9%
COc1ccc(OC)c(NC(=O)c2nnn(CCc3ccccc3)c2N)c1,viability,[2],inactive: 88%
Cc1cc2ccccc2c(=O)n1CC(=O)NCC(=O)N(C)Cc1ccccc1,viability,[2],inconclusive: 89.5%
O=C(NCc1cccnc1)NC1(C(F)(F)F)Oc2ccccc2O1,viability,[2],inconclusive: 30.4%
Cc1nnc(NC(=O)CSc2nccn2-c2cccc(C)c2C)s1,viability,[2],inconclusive: 27.8%
O=C(Oc1ccc(Cl)cc1)N1CCCCC1,viability,[2],inconclusive: 97.4%
O=C(CCNS(=O)(=O)c1cccc2nsnc12)NCc1cccs1,viability,[2],inconclusive: 100%
CCn1c(C)c2c(C)nnc(C)c2c1C,viability,[2],inconclusive: 99.9%
CC1Cn2c(COc3ccccc3)nnc2S1 (stereo unspecified),viability,[2],inactive: 102%
Cc1ccc(C(=O)NCCNC(=O)CN2CCCC2)cc1,viability,[2],inconclusive: 98.5%
CCOC(=O)CSc1nnc(Cn2c(=O)sc3ccccc32)n1C,viability,[2],inactive: 107%
CCN(CC)C(=O)c1cn(C)c(=O)c2cc(OC)c(OC)cc12,viability,[2],inconclusive: 103%
CN(C)c1ccc(NC(=S)c2ccccn2)cc1,viability,[2],inconclusive: 25.7%
c1ccc(-n2nnnc2-n2ccnc2)cc1,viability,[2],inconclusive: 97.5%
COc1ccc(S(=O)(=O)N2CCCCC2C(=O)O)cc1OC (stereo unspecified),viability,[2],inconclusive: 104%
O=C(Nc1ccc(Cl)cc1)N(Cc1cccs1)Cc1cccs1,viability,[2],inconclusive: 79.1%
CCOC(=O)c1ccc(NC(=O)CSc2nc(C)cc(=O)[nH]2)cc1,viability,[2],inactive: 98.5%
O=C(Nc1cnccn1)c1cccs1,viability,[2],inconclusive: 91.8%
Cc1cccc(N(C)C(=O)CCS(=O)(=O)c2cccc3nonc23)c1,viability,[2],inconclusive: 103%
COc1ccccc1N1CCN(CC(O)COc2ccc3c(C)cc(=O)oc3c2)CC1 (stereo unspecified),viability,[2],inconclusive: 99.8%
CS(=O)(=O)N(CC(=O)NCc1ccncc1)c1cc(Cl)cc(Cl)c1,viability,[2],inconclusive: 109%
Cc1c(C)[n+](=O)c(-c2ccc(F)cc2)c(C)n1[O-],viability,[2],inconclusive: 92.2%
CCS(=O)(=O)N1CCN(C(=O)c2cccs2)CC1,viability,[2],inconclusive: 108%
COc1ccc(OC)c(S(=O)(=O)N2CCCCC2C(=O)N2CCN(c3ccccn3)CC2)c1 (stereo unspecified),viability,[2],inconclusive: 93.6%
COc1ccc(NC(=O)c2oc3ccccc3c2C)c(OC)c1,viability,[2],inconclusive: 99.2%
O=C(NCC1CCCO1)C1CCCCN1S(=O)(=O)c1ccc(F)cc1 (stereo unspecified),viability,[2],inconclusive: 110%
CCOc1ccc(-n2c(SCC(=O)Nc3cc(C)on3)nc3c([nH]c4ccccc43)c2=O)cc1,viability,[2],inconclusive: 32.7%
Cc1cc(C)cc(OCCCCCNCCO)c1,viability,[2],inactive: 87.6%
O=C(C1CCCN(S(=O)(=O)c2ccc(F)cc2)C1)N(Cc1cccs1)C1CC1 (stereo unspecified),viability,[2],inconclusive: 59.1%
CC(C)c1ccc(NC(=O)CCNS(=O)(=O)c2cccc3nonc23)cc1,viability,[2],inconclusive: 90.8%
COc1ccc(N)cc1C#N,viability,[2],inactive: 98.5%
CCOC(=O)N1CCN(S(=O)(=O)c2cc(Br)cc3c2N(C(=O)C2CC2)CC3)CC1,viability,[2],inconclusive: 109%
CC(C)c1cc(=O)oc2c3c4c(cc12)CCCN4CCC3,viability,[2],inconclusive: 47.9%
CCOC(=O)Cc1c(C)nc2c(-c3ccccc3)c[nH]n2c1=O,viability,[2],inactive: 76.8%
O=S(=O)(Cc1ccccc1)N1CCc2ccccc2C1,viability,[2],inconclusive: 111%
COC(=O)c1c(NC(=O)Cc2cccs2)sc(C)c1C,viability,[2],inconclusive: 82.4%
O=C1CC(c2ccccc2)c2cc(O)ccc2O1 (stereo unspecified),viability,[2],inconclusive: 32.9%
CCCCC(CC)CNC(=O)CCS(=O)(=O)c1cccc2nsnc12 (stereo unspecified),viability,[2],inactive: 85.7%
COCCNC(=O)c1ccc2c(=O)n(CCOC)c(=O)[nH]c2c1,viability,[2],inconclusive: 98.1%
Cc1cc(C(=O)N2CCN(c3ccccn3)CC2)c(C)o1,viability,[2],inconclusive: 94.5%
CCNC(=O)CN(C1CCCCC1)S(=O)(=O)c1ccc(F)cc1,viability,[2],inconclusive: 97.4%
CCCOc1nc2c(c(=O)n(C)c(=O)n2C)n1Cc1cccc2ccccc12,viability,[2],inconclusive: 31.4%
Cc1ccc(OCC(O)CN2CCN(c3ccccc3)CC2)cc1 (stereo unspecified),viability,[2],inconclusive: 90%
COCCCNC(=O)c1cn(C)c(=O)c2cc(OC)c(OC)cc12,viability,[2],inconclusive: 95.2%
COc1ccc(S(=O)(=O)N2CCC(C(=O)N3CCN(c4ccccc4OC)CC3)CC2)cc1,viability,[2],inconclusive: 92.4%
CCOC(=O)c1[nH]c(C)c(C(=O)N(CC)CC)c1C,viability,[2],inactive: 97%
CCOC(=O)CNS(=O)(=O)CCN1C(=O)c2ccccc2C1=O,viability,[2],inconclusive: 95.5%
Cc1ccc(S(=O)(=O)c2cccc(S(=O)(=O)N3CCCC3)c2)cc1S(=O)(=O)N1CCCC1,viability,[2],inconclusive: 34.4%
Cc1ccc(N2C(=O)c3ccccc3C2Nc2ccccc2F)nc1 (stereo unspecified),viability,[2],inactive: 88.3%
O=C(CSc1nc(-c2ccncc2)nn1CC(=O)N1CCCCC1)NC1CCCC1,viability,[2],inconclusive: 92.2%
CCN(CC)c1ccc(NC(=O)c2nc3nc(C)cc(C(F)F)n3n2)cc1,viability,[2],inactive: 95.2%
COc1ccc2ccccc2c1C1CC(=O)N2CN(Cc3ccco3)CSC2=C1C#N (stereo unspecified),viability,[2],inactive: 82.5%
C=CCn1c(SC(CCO)C(=O)NCc2ccco2)nc2sc3c(c2c1=O)CCC3 (stereo unspecified),viability,[2],inconclusive: 91.8%
CCNc1nc2c(c(=O)n(C)c(=O)n2C)n1Cc1ccc(Cl)cc1,viability,[2],inconclusive: 33.1%
CC(Oc1ccc(Cl)cc1)C(=O)Nc1nccs1 (stereo unspecified),viability,[2],inconclusive: 77.8%
CCOC(=O)N1CCC(NC(=O)C(CC(C)C)NC(=O)C2CCCCC2)CC1 (stereo unspecified),viability,[2],inconclusive: 98.8%
O=C(c1ccc(CNc2c(N3CCOCC3)c(=O)c2=O)cc1)N1CC=C(c2ccccc2)CC1,viability,[2],inactive: 95.3%
CCOC(=O)N1CCc2c(sc(NC(=O)c3ccc(Cl)s3)c2C(N)=O)C1,viability,[2],inconclusive: 36.8%
O=C(Nc1ccccc1)N1CCN(Cc2ccc3c(c2)OCO3)CC1,viability,[2],inactive: 101%
CCOC(=O)N1CCN(C(=O)CN(c2cccc(C(F)(F)F)c2)S(C)(=O)=O)CC1,viability,[2],inconclusive: 93%
Cc1cc(S(=O)(=O)N2CCN(Cc3ccc4c(c3)OCO4)CC2)cc(C)c1N1CCCC1=O,viability,[2],inconclusive: 25.9%
COc1cc(C(=O)NCc2ccc3c(c2)OCO3)ccc1OCc1c(C)noc1C,viability,[2],inconclusive: 99.8%
O=C(c1cc2nc(-c3ccco3)cc(C(F)(F)F)n2n1)N1CCCCCC1,viability,[2],inactive: 86.3%
O=C(CCC1CCCC1)c1c(O)c2ccccc2oc1=O,viability,[2],inactive: 69.4%
CCOC(=O)c1c(NC(=O)OC)sc(C(=O)N(CC)CC)c1C,viability,[2],inconclusive: 98.5%
Cc1ccc(CNC(=O)c2oc3ccc(S(=O)(=O)N4CCC5(CC4)OCCO5)cc3c2C)cc1,viability,[2],inconclusive: 58.6%
CC1CN(S(=O)(=O)c2ccc(Cl)c(S(=O)(=O)N3CC(C)OC(C)C3)c2)CC(C)O1 (stereo unspecified),viability,[2],inactive: 89%
CCOC(=O)C1CCN(C(=O)c2cn(C)c(=O)c3cc(OC)c(OC)cc23)CC1,viability,[2],inconclusive: 92%
